Laboratory results taken from US11882835B2, “Benzimidazole compound having an optionally halogenated alkylenedioxy group or salt thereof, agricultural and horticultural insecticide comprising the compound or the salt, and method for using the insecticide” (NIHON NOHYAKU CO., LTD., priority 2018, dated 2024).
Some of these results come from one statement about several compounds together.

How the values were obtained:
Myzus persicae = test: Test for control efficacy on Myzus persicae (foliar application, potted Chinese cabbage); assay type: in vivo; conditions: 500 ppm, foliar application to Chinese cabbage, 6 days after application
Ctenocephalides felis = test: Assay for oral parasiticidal activity against adults of Ctenocephalides felis; assay type: in vivo; conditions: 50 ppm in bovine blood, oral via feeder, following day
Protocol: Assay for Oral Parasiticidal Activity Against Adults of Ctenocephalides felis
Newly-emerged adults of C. felis were placed into test cages (10 adults per test cage). DMSO diluted solutions of various compounds of the present invention were added to aliquots of bovine blood at the final concentration of 50 ppm and orally administered to the adults of C. felis using a feeder. The mortality rate was examined on the following day. Aberrant adults were regarded as the dead.

Dirofilaria immitis = test: Larval motility assay on Dirofilaria immitis; assay type: in vivo; conditions: 50 ppm, 3 days, relative to DMSO only
Protocol: Larval Motility Assay on Dirofilaria immitis
Five hundred L1 stage larvae of D. immitis were diluted in a predetermined conditioned medium and introduced into each well of a 96-well plate. DMSO diluted solutions of various compounds of the present invention were added at the final concentration of 50 ppm to the wells of the 96-well plate. The plate was allowed to stand for 3 days, and then larval motility was examined. The percent motility inhibition in the wells of each treatment was calculated relative to the wells of treatment with DMSO only.

Rhipicephalus sanguineus = test: Assay for transdermal parasiticidal activity against nymphs of Rhipicephalus sanguineus; assay type: in vivo; conditions: 100 ppm applied to inside of sample bottles, two days later
Text: Assay for Transdermal Parasiticidal Activity Against Nymphs of Rhipicephalus sanguineus
DMSO diluted solutions of various compounds of the present invention were individually diluted to the final concentration of 100 ppm with an acetone/triton solution and applied to the inside of vented sample bottles. After overnight drying, ten nymphs of R. sanguineus were introduced into each bottle, and the mortality rate was examined two days later. Aberrant adults were regarded as the dead.

Plutella xylostella = conditions: 500 ppm, seedlings with laid eggs dipped about 30 seconds, 25° C., 6 days after dip treatment
Laodelphax striatellus = test: Insecticidal test on Laodelphax striatellus (rice seedling dip); conditions: 500 ppm, rice seedlings dipped 30 seconds, 3rd-instar larvae, 8 days after inoculation

## CCSc1cc(C2(C#N)CC2)cnc1-c1nc2cc3c(cc2n1C)OC(F)(F)O3 [Compound 1-4]
Myzus persicae
  activity level (control rate) on Myzus persicae: A (the control rate is 100%)

## CC[S+]([O-])c1cc(C2(C#N)CC2)cnc1-c1nc2cc3c(cc2n1C)OC(F)(F)O3 (stereo not shown) [Compound 1-5]
Myzus persicae
  activity level (control rate) on Myzus persicae: A (the control rate is 100%)

## CCS(=O)(=O)c1cc(C2(C#N)CC2)cnc1-c1nc2cc3c(cc2n1C)OC(F)(F)O3 [Compound 1-6]
Ctenocephalides felis
  mortality rate, adults of C. felis: ≥ 50%
Dirofilaria immitis
  percent motility inhibition, D. immitis L1 stage larvae: ≥ 50%
Rhipicephalus sanguineus
  mortality rate, nymphs of R. sanguineus: ≥ 50%
Myzus persicae
  activity level (control rate) on Myzus persicae: A (the control rate is 100%)

## CCSc1cc(C2CC2)cnc1-c1nc2cc3c(cc2n1CC)OC(F)(F)O3 [Compound 1-10]
Plutella xylostella
  activity level (corrected mortality rate) of P. xylostella: A (the corrected mortality rate is 100%)

## CCn1c(-c2ncc(C3CC3)cc2[S+]([O-])CC)nc2cc3c(cc21)OC(F)(F)O3 (stereo not shown) [Compound 1-11]
Myzus persicae
  activity level (control rate) on Myzus persicae: A (the control rate is 100%)

## CCn1c(-c2ncc(C3CC3)cc2S(=O)(=O)CC)nc2cc3c(cc21)OC(F)(F)O3 [Compound 1-12]
Myzus persicae
  activity level (control rate) on Myzus persicae: A (the control rate is 100%)

## CCSc1cc(C2CC2)cnc1-c1nc2cc3c(cc2n1COC)OC(F)(F)O3 [Compound 1-13]
Myzus persicae
  activity level (control rate) on Myzus persicae: A (the control rate is 100%)

## CC[S+]([O-])c1cc(C2CC2)cnc1-c1nc2cc3c(cc2n1COC)OC(F)(F)O3 (stereo not shown) [Compound 1-14]
Plutella xylostella
  activity level (corrected mortality rate) of P. xylostella: A (the corrected mortality rate is 100%)
Laodelphax striatellus
  activity level (corrected mortality rate) of L. striatellus: A (the corrected mortality rate is 100%)

## CCS(=O)(=O)c1cc(C2CC2)cnc1-c1nc2cc3c(cc2n1COC)OC(F)(F)O3 [Compound 1-15]
Myzus persicae
  activity level (control rate) on Myzus persicae: A (the control rate is 100%)
